Results published in patent US20260079169A1, “VOLATILE ORGANIC COMPOUNDS AS MARKERS FOR CELLULAR COMMUNICATION” (Technion Research and Development Foundation Limited, priority 2020, published 2026).

Legend:
[1] = tested on: different-cell pairs of BEAS-2B, A549, H1299, H1975 without physical contact under a mutual headspace; assay: VOCs headspace analysis (ITEX GC-MS) of different-cell pair co-culture headspace groups (Format-3), bulk cell samples; type: cell-based, human; settings: bulk 1 × 10^4 cell
[2] = tested on: A549, H1299, H1975 human lung cancer lines and BEAS-2B normal cell line, each cultured alone; assay: VOCs headspace analysis (ITEX GC-MS) of mono-culture groups (Format-1), bulk cell samples 1×10^4 cells; type: cell-based; settings: bulk 1 × 10^4 cell

SMILES	VOC level in headspace, area under curve (AUC) normalized by STD AUC ([1]; A + B (BEAS-2B + A549))	VOC level in headspace, area under curve (AUC) normalized by STD AUC ([1]; A + C (BEAS-2B + H1299))	VOC level in headspace, area under curve (AUC) normalized by STD AUC ([1]; A + D (BEAS-2B + H1975))	VOC level in headspace, area under curve (AUC) normalized by STD AUC ([1]; B + C (A549 + H1299))	VOC level in headspace, area under curve (AUC) normalized by STD AUC ([1]; B + D (A549 + H1975))	VOC level in headspace, area under curve (AUC) normalized by STD AUC ([1]; C + D (H1299 + H1975))	VOC level in headspace, area under curve (AUC) normalized by STD AUC ([2]; A (BEAS-2B) mono-culture)	VOC level in headspace, area under curve (AUC) normalized by STD AUC ([2]; B (A549) mono-culture)	VOC level in headspace, area under curve (AUC) normalized by STD AUC ([2]; C (H1299) mono-culture)	VOC level in headspace, area under curve (AUC) normalized by STD AUC ([2]; D (H1975) mono-culture)
CC(C)(C)c1ccc(C(C)(C)C)c(O)c1 [VOC61]	3.194	4.011	3.337	0	0	0	5.058	6.818	0	0
Cc1ccc(CO)cc1 [VOC62]	0	0	3.442	0	1.475	0	3.841	3.718	0	3.213
CCCCC(=O)C(=O)CCCC [VOC63]	0	3.744	0	1.929	0	0	0	0	5.0214	0
CCCCCCCCCCCCCCC(C)C [VOC64]	0	2.915	0	1.031	0	9.273	0	0	6.3364	7.301
CCCCC(CC)COC(=O)c1ccccc1 (stereo not drawn) [VOC65]	0	5.138	2.112	1.589	0.7462	7.483	0	0	5.1791	4.418
C=CCOCCC [VOC66]	6.616	4.601	0	1.264	0.9916	0	5.989	0	10.089	0
CC=COCC [VOC67]	2.156	4.955	0	1.423	0	1.116	5.011	0	6.8723	0
CCC(C)(C)CC [VOC68]	0	2.818	0	1.004	0	1.905	0	0	6.6243	0
CC(C)CCCC(C)CCC(C)C (stereo not drawn) [VOC69]	1.042	0	0	0	0	0	2.016	1.322	3.717	0
CCC(C)CCC(C)CCCCC(C)C (stereo not drawn) [VOC70]	1.598	2.709	0	8.971	0	1.423	0	5.451	6.1264	0
CCC(C)CCCC(C)CCCC(C)C (stereo not drawn) [VOC71]	0	0	5.065	0	3.383	1.027	0	0	0	5.484
Cc1ccc(C=Nc2ccc(C)cc2)cc1 [VOC72]	4.311	7.3	4.219	3.205	0	1.891	2.104	0	4.6374	0
